The list shows a part of the results. The main result of the screen is listed elsewhere. These columns were measured beside it and carry no call. Most of these compounds were active or inconclusive in the main read-out, so they are no random draw. Potencies come from curve fits of mixed quality, noted in brackets.
Assay: qHTS Assay for Modulators of Lamin A Splicing
Settings: HeLa LMNA splicing GFP/RFP minigene ratio, 48 h
Method in brief: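 Read-out is the ratio of GFP to DsRed2 object intensity, acquired by 488 nm laser-scanning cytometry on HeLa lamin A-EGFP minigene reporter cells. Compound incubation 48 hrs at 37 °C in Opti-MEM with 2% FBS; DMSO 0.5% final.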

[1] = measured here: GFP splicing reporter channel
[2] = measured here: RFP viability control channel

Row | Structure (SMILES) | AC50 [1] | AC50 [2]
1 | CCOC(=O)N1CCC(NC(=O)C2CCN(S(=O)(=O)c3c(C)noc3C)CC2)CC1 | 2.82 µM [falling, full curve, poor fit] | 3.16 µM [falling, full curve]
2 | CCCCNC(=O)c1cccc(NC(=O)c2nsc3ccccc23)c1 | 0.0224 µM [rising, full curve, poor fit] | 
3 | C/C(=N\NC(=O)c1cc(C)[nH]n1)C(C)(C)C | 14.1 µM [rising, partial curve, poor fit] | 11.2 µM [rising, partial curve, poor fit]
4 | O=C(N/N=C/c1cn(-c2ccccc2)nc1-c1cc2ccccc2o1)c1cccnc1 |  | 0.282 µM [rising, full curve, poor fit]
5 | CCOc1ccc(S(=O)(=O)Nc2ccccc2SC)cc1 |  | 22.4 µM [rising, single point]
6 | O=C(CSc1nnc(-c2ccco2)o1)N1c2ccccc2CCc2ccccc21 |  | 12.6 µM [rising, partial curve]
7 | Nc1nnnn1CC(=O)N/N=C/c1ccc(-c2cccc(Cl)c2)o1 | 0.158 µM [rising, full curve] | 0.0794 µM [rising, full curve, poor fit]
8 | COc1cc(/C=N/NC(=O)c2cccnc2)ccc1OS(=O)(=O)c1ccc(C)cc1 |  | 10 µM [rising, partial curve, poor fit]
9 | CC(=C(CCOP(=O)(O)O)SC(=O)c1ccccc1)N(C=O)Cc1cnc(C)nc1N | 12.6 µM [falling, single point] | 12.6 µM [falling, single point]
10 | COc1ccc(N2CCN(S(=O)(=O)c3ccc(F)c(C(=O)Nc4ccccc4Cl)c3)CC2)cc1 | 11.2 µM [falling, partial curve] | 35.5 µM [falling, partial curve, poor fit]
11 | Cc1cc(C(=O)CSc2nc3ccccc3o2)c(C)n1C1CC1 |  | 12.6 µM [rising, partial curve, poor fit]
12 | CCOC(=O)c1sc(=S)n(-c2ccccc2Cl)c1SC |  | 22.4 µM [rising, single point]
13 | CC(=O)N1CCN(C(=O)c2ccc(Oc3ccccc3)cc2)CC1 | 6.31 µM [rising, partial curve] | 
14 | O=C(NCc1cccnc1)c1ccc(CS(=O)(=O)Cc2ccc(Cl)cc2)o1 |  | 35.5 µM [rising, single point]
15 | CC(C)COc1cccc(C(=O)Nc2ccc(S(=O)(=O)N3CCOCC3)cc2)c1 |  | 14.1 µM [rising, single point]
16 | CCCOc1ccc2nc(NC(=O)OC)sc2c1 |  | 2.51 µM [rising, full curve]
17 | COc1cccc(Nc2ncc3ncc(=O)n(Cc4ccc(F)cc4)c3n2)c1 |  | 22.4 µM [falling, partial curve, poor fit]
18 | CCOc1ccc(C(=O)C2CCN(CC(=O)Nc3ccccc3N3CCOCC3)CC2)cc1 | 10 µM [rising, partial curve] | 12.6 µM [rising, partial curve]

Looked up by compound from above (2):
Row | Structure (SMILES) | AC50 [1] | AC50 [2]
2 | CCCCNC(=O)c1cccc(NC(=O)c2nsc3ccccc23)c1 | 0.0224 µM [rising, full curve, poor fit] | 
7 | Nc1nnnn1CC(=O)N/N=C/c1ccc(-c2cccc(Cl)c2)o1 | 0.158 µM [rising, full curve] | 0.0794 µM [rising, full curve, poor fit]

Going on with the list.

Row | Structure (SMILES) | AC50 [1] | AC50 [2]
19 | O=C(Nc1nc(-c2ccccn2)cs1)c1ccco1 |  | 28.2 µM [falling, single point]
20 | CC(C)(C)c1ccc(S(=O)(=O)/C=C/C#N)cc1 | 3.55 µM [falling, full curve] | 3.16 µM [falling, full curve]
21 | CC(C)CC(COCc1ccc(F)cc1)N1CCN(C(=O)c2cccc(C(F)(F)F)c2)CCC1=O (configuration not stated) | 17.8 µM [rising, single point] | 31.6 µM [rising, single point]
22 | CCNc1nc(Oc2ccc(C(=O)OCC)cc2)nc(SC)n1 | 17.8 µM [rising, partial curve, poor fit] | 
23 | COC(=O)c1cn[nH]c1NC(=S)Nc1ccc(Cl)c(Cl)c1 |  | 31.6 µM [rising, single point]
24 | O=C(NC(CSCc1ccccc1)C(=O)N/N=C/c1ccc(O)cc1O)c1ccc([N+](=O)[O-])cc1 (configuration not stated) |  | 14.1 µM [rising, partial curve]
25 | O=C1CC(c2ccc(F)cc2)SC(N(c2ccccc2)c2ccccc2)=N1 (configuration not stated) |  | 35.5 µM [rising, single point]
26 | CCCSCCCNC(=O)c1ccc(C)c(NC(=O)c2nsc3ccccc23)c1 | 0.562 µM [rising, single point] | 
27 | Cn1c(SCC(=O)NNC(=O)c2ccc(Br)cc2)nnc1-c1cccnc1 | 0.0126 µM [rising, full curve] | 
28 | O=C(Nc1ccc(Oc2ccccc2)cc1)C1CCN(c2c3c(nc4ncnn24)CCC3)CC1 | 31.6 µM [falling, single point] | 25.1 µM [falling, single point]
29 | CCN(C(=O)c1ccc2c(Cl)c3c(nc2c1)CCC3)c1ccc(C)c(C)c1 | 22.4 µM [rising, single point] | 31.6 µM [rising, single point]
30 | COc1nccnc1NS(=O)(=O)c1ccc(N)cc1 | 0.891 µM [falling, partial curve] | 
31 | Cc1ccc(C)c(NC(=O)Cc2ccc(S(=O)(=O)N3CCCCC3)s2)c1 |  | 15.8 µM [rising, single point]
32 | O=C(CN1CCN(c2ccc(O)cc2)CC1)Nc1cc(S(=O)(=O)N2CCOCC2)ccc1Cl |  | 22.4 µM [rising, single point]
33 | CCc1nnc(NC(=O)c2sc3nc4cc(C)ccc4cc3c2N)s1 | 31.6 µM [falling, single point] | 35.5 µM [falling, single point]
34 | Cc1cc(Nc2ccc(Br)cc2)nc(C)n1 | 4.47 µM [falling, partial curve] | 
35 | Cc1cccc(OCc2nc(CC(=O)Nc3ccc(Cl)cc3)cs2)c1 |  | 3.55 µM [falling, partial curve, poor fit]
36 | CC[C@H](C)[C@@H]1NC(=O)c2cc([N+](=O)[O-])cc(F)c2NCCCC[C@@H](C(N)=O)NC(=O)[C@H](CCCCN)NC1=O |  | 7.08 µM [rising, single point]

Reference: PubChem BioAssay AID1487 (National Center for Advancing Translational Sciences (NCATS), 2009)
